In assay [1] the target is GST-Rheb (human) (UniProt Q15382). As to the kind of experiment: pull-down.
Assay [2] has as its target FLAG-Rheb (human) (UniProt Q15382). As to the kind of experiment: co-IP.
The target of assay [3] is FLAG-Rheb^Q64L (human) (UniProt Q15382). The assay can be described thus: co-IP.
Assay [4] deals with FLAG-Rheb (human) (UniProt Q15382). As to the kind of experiment: co-IP. This is another data set of the same source.
Assay [5] has as its target FLAG-Rheb^C181S (human) (UniProt Q15382). As to the kind of experiment: co-IP.
For assay [6], the target named is FLAG-Rheb^S20N (human) (UniProt Q15382). The assay can be described thus: co-IP.
Assay [7] has the same target. As to the kind of experiment: co-IP. The source holds these as a separate data set.

Protein sequences, listed by entry. Tags and fused reporters are not part of them. Lines headed by an entry give the natural chain unless they say otherwise; changes in a name come on top.
UniProt Q15382, whole entry: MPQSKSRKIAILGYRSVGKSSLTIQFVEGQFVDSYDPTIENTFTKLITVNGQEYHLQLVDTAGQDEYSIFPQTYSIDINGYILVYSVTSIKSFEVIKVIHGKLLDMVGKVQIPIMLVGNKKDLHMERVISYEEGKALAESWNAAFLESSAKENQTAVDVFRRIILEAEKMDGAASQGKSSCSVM
UniProt O75140, whole entry: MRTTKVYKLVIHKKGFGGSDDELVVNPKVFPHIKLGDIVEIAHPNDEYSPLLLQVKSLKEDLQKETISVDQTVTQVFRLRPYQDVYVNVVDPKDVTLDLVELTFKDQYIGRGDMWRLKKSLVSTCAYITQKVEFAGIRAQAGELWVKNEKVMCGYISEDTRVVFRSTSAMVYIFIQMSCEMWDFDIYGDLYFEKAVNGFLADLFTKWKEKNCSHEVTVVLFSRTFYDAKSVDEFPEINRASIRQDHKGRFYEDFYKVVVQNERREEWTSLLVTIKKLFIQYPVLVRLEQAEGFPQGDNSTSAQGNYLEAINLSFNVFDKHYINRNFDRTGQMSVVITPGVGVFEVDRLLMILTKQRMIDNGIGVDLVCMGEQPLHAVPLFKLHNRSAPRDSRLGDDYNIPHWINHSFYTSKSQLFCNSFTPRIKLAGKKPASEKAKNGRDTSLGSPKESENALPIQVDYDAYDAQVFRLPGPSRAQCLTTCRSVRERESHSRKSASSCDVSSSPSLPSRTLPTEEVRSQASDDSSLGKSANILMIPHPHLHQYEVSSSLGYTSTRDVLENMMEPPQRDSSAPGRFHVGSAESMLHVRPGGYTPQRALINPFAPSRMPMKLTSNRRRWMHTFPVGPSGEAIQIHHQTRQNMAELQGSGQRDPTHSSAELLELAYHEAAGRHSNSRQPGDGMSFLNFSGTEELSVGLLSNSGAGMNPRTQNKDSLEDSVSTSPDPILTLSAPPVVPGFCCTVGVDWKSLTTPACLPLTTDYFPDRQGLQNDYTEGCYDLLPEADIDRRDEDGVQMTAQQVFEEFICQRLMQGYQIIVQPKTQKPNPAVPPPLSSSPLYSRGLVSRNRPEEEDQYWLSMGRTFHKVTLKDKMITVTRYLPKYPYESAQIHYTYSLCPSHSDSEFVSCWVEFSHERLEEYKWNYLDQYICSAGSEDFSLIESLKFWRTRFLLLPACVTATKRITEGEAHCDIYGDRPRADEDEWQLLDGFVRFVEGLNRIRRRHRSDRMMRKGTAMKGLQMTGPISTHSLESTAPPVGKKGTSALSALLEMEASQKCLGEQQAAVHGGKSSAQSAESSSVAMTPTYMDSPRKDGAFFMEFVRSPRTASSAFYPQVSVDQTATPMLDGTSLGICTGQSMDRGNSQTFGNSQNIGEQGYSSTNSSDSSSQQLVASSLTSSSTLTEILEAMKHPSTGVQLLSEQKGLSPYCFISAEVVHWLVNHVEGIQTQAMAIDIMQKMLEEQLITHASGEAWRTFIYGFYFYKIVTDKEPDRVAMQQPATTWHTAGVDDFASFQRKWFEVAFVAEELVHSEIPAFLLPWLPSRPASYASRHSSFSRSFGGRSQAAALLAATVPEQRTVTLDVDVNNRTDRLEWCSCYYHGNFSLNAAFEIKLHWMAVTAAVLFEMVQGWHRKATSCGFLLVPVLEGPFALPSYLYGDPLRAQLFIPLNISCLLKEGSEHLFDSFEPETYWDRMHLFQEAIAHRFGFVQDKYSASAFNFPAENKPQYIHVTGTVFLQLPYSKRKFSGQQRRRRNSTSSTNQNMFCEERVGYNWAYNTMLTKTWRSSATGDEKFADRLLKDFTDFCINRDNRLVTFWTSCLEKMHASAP

Where two headings read alike, the source gives them in different places. These are yes or no findings as the source states them, for the method shown. In cells and extracts the contact can be indirect. Some binding calls cover weakened binding; strength is not graded here. Sequences can lack the tags named with a protein.

Regarding HA-Depdc5 (from UniProt O75140 1-1603), the binding entry in assay [1] is on record as “no binding”.

B1: HA-Nprl2 (protein, UniProt Q8WTW4 1-380)
chain: MGSGCRIECIFFSEFHPTLGPKITYQVPEDFISRELFDTVQVYIITKPELQNKLITVTAMEKKLIGCPVCIEHKKYSRNALLFNLGFVCDAQAKTCALEPIVKKLAGYLTTLELESSFVSMEESKQKLVPIMTILLEELNASGRCTLPIDESNTIHLKVIEQRPDPPVAQEYDVPVFTKDKEDFFNSQWDLTTQQILPYIDGFRHIQKISAEADVELNLVRIAIQNLLYYGVVTLVSILQYSNVYCPTPKVQDLVDDKSLQEACLSYVTKQGHKRASLRDVFQLYCSLSPGTTVRDLIGRHPQQLQHVDERKLIQFGLMKNLIRRLQKYPVRVTREEQSHPARLYTGCHSYDEICCKTGMSYHELDERLENDPNIIICWK
As to B1, the binding entry was “binds” in assay [1]; “binds weakly” in assay [2]; “binds weakly” in assay [3]; “binds” in assay [4]; “binds weakly” in assay [5]; “binds” in assay [6]. The binding result in assay [7] was “binds”.

B2: HA-Nprl3 (protein, UniProt Q12980 1-569)
chain: MRDNTSPISVILVSSGSRGNKLLFRYPFQRSQEHPASQTSKPRSRYAASNTGDHADEQDGDSRFSDVILATILATKSEMCGQKFELKIDNVRFVGHPTLLQHALGQISKTDPSPKREAPTMILFNVVFALRANADPSVINCLHNLSRRIATVLQHEERRCQYLTREAKLILALQDEVSAMADGNEGPQSPFHHILPKCKLARDLKEAYDSLCTSGVVRLHINSWLEVSFCLPHKIHYAASSLIPPEAIERSLKAIRPYHALLLLSDEKSLLGELPIDCSPALVRVIKTTSAVKNLQQLAQDADLALLQVFQLAAHLVYWGKAIIIYPLCENNVYMLSPNASVCLYSPLAEQFSHQFPSHDLPSVLAKFSLPVSLSEFRNPLAPAVQETQLIQMVVWMLQRRLLIQLHTYVCLMASPSEEEPRPREDDVPFTARVGGRSLSTPNALSFGSPTSSDDMTLTSPSMDNSSAELLPSGDSPLNQRMTENLLASLSEHERAAILSVPAAQNPEDLRMFARLLHYFRGRHHLEEIMYNENTRRSQLLMLFDKFRSVLVVTTHEDPVIAVFQALLP
As for B2, the binding result in assay [1] is “binds”; in assay [2] it was “binds weakly”; in assay [4], “binds”; in assay [6], “binds”.
